PubChem BioAssay AID1259308, NCATS – 2017
The whole screen tested about 59,000 reagents; this is an unselected part. About 1,510 of them (2.6%) count as active. 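Calls use total luciferase alone and ignore viability, so some active siRNAs may act by altering cell number.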 Reagents against one gene are numbered here. Further read-outs or replicates are left out here.

Purpose: 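Knock-downs that increase output of a recombinant reporter protein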 (primary screen)
Cells: human HEK293 embryonic kidney cells stably expressing firefly luciferase (HEK-CMV-Luc2-Hygro)
Reagent: single siRNA against human genes, 0.8 pmol siRNA per well
Time to read-out: 72 h
Detection: 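Luciferase light (ONE-Glo) measured on one replicate plate set and viability (CellTiter-Glo) on the other, scaled to a negative control siRNA, with robust z-scores and luciferase per cell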
Reading the numbers: total luciferase, z-score and total luciferase, % of control: higher = more reporter protein produced
Hit rule: 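Active when the median/MAD z-score for overall luciferase is greater than 3; a gene was taken forward for validation with new siRNAs if at least two of its three siRNAs passed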
Meaning of the calls: active = raised luciferase; inactive = no rise

Which result is listed for CD163 (CD163 molecule) #1?
total luciferase, z-score: -0.555; total luciferase, % of control: 70.8; Call: inactive

What did the screen give for CD163 (CD163 molecule) #2?
total luciferase, z-score: -0.0483; total luciferase, % of control: 80.9; Call: inactive

What is on record for CD163 (CD163 molecule) #3?
total luciferase, z-score: -0.568; total luciferase, % of control: 70.6; Call: inactive

How did the screen score IKZF2 (IKAROS family zinc finger 2) #1?
total luciferase, z-score: -0.447; total luciferase, % of control: 73; Call: inactive

For IKZF2 (IKAROS family zinc finger 2) #2, what was measured?
total luciferase, z-score: -0.0084; total luciferase, % of control: 81.7; Call: inactive

For IKZF2 (IKAROS family zinc finger 2) #3, how do the results read?
total luciferase, z-score: -1.45; total luciferase, % of control: 53.1; Call: inactive

For IL18RAP (interleukin 18 receptor accessory protein) #1, how do the results read?
total luciferase, z-score: 0.525; total luciferase, % of control: 92.3; Call: inactive

How did the screen score IL18RAP (interleukin 18 receptor accessory protein) #2?
total luciferase, z-score: -0.28; total luciferase, % of control: 76.3; Call: inactive

For IL18RAP (interleukin 18 receptor accessory protein) #3, what was measured?
total luciferase, z-score: -0.259; total luciferase, % of control: 76.7; Call: inactive

Which result is listed for HES1 (hes family bHLH transcription factor 1) #1?
total luciferase, z-score: -1.26; total luciferase, % of control: 56.9; Call: inactive

For HES1 (hes family bHLH transcription factor 1) #2, what does the deposit list?
total luciferase, z-score: -1.22; total luciferase, % of control: 57.7; Call: inactive

With HES1 (hes family bHLH transcription factor 1) #3, what was measured?
total luciferase, z-score: 0.715; total luciferase, % of control: 96.1; Call: inactive

For GALNS (galactosamine (N-acetyl)-6-sulfatase) #1, what was measured?
total luciferase, z-score: -0.225; total luciferase, % of control: 77.4; Call: inactive

For GALNS (galactosamine (N-acetyl)-6-sulfatase) #2, what was measured?
total luciferase, z-score: 0.119; total luciferase, % of control: 84.2; Call: inactive

Which result is listed for GALNS (galactosamine (N-acetyl)-6-sulfatase) #3?
total luciferase, z-score: 0.297; total luciferase, % of control: 87.8; Call: inactive

With SCGB3A2 (secretoglobin family 3A member 2) #1, what was measured?
total luciferase, z-score: -0.536; total luciferase, % of control: 71.2; Call: inactive

With SCGB3A2 (secretoglobin family 3A member 2) #2, how do the results read?
total luciferase, z-score: -0.299; total luciferase, % of control: 75.9; Call: inactive

With SCGB3A2 (secretoglobin family 3A member 2) #3, how do the results read?
total luciferase, z-score: 1.66; total luciferase, % of control: 115; Call: inactive

Which result is listed for POU2AF3 (POU class 2 homeobox associating factor 3) #1?
total luciferase, z-score: 1.11; total luciferase, % of control: 104; Call: inactive

What did the screen give for POU2AF3 (POU class 2 homeobox associating factor 3) #2?
total luciferase, z-score: -0.321; total luciferase, % of control: 75.5; Call: inactive

With POU2AF3 (POU class 2 homeobox associating factor 3) #3, what was measured?
total luciferase, z-score: 0.302; total luciferase, % of control: 87.9; Call: inactive

5 successive records from above, for reference:
IKZF2 (IKAROS family zinc finger 2) #1: total luciferase, z-score = -0.447; total luciferase, % of control = 73; Call = inactive
IKZF2 (IKAROS family zinc finger 2) #2: total luciferase, z-score = -0.0084; total luciferase, % of control = 81.7; Call = inactive
IKZF2 (IKAROS family zinc finger 2) #3: total luciferase, z-score = -1.45; total luciferase, % of control = 53.1; Call = inactive
IL18RAP (interleukin 18 receptor accessory protein) #1: total luciferase, z-score = 0.525; total luciferase, % of control = 92.3; Call = inactive
IL18RAP (interleukin 18 receptor accessory protein) #2: total luciferase, z-score = -0.28; total luciferase, % of control = 76.3; Call = inactive

Further results follow:
What is on record for RHOV (ras homolog family member V) #1?
total luciferase, z-score: -0.623; total luciferase, % of control: 69.5; Call: inactive

How did the screen score RHOV (ras homolog family member V) #2?
total luciferase, z-score: -0.661; total luciferase, % of control: 68.7; Call: inactive

Which result is listed for RHOV (ras homolog family member V) #3?
total luciferase, z-score: 0.206; total luciferase, % of control: 86; Call: inactive

With SPATA6L (spermatogenesis associated 6 like) #1, how do the results read?
total luciferase, z-score: 0.12; total luciferase, % of control: 84.3; Call: inactive

What did the screen give for SPATA6L (spermatogenesis associated 6 like) #2?
total luciferase, z-score: 0.947; total luciferase, % of control: 101; Call: inactive

For SPATA6L (spermatogenesis associated 6 like) #3, what does the deposit list?
total luciferase, z-score: -0.481; total luciferase, % of control: 72.3; Call: inactive

What did the screen give for RHO (rhodopsin) #1?
total luciferase, z-score: -1.1; total luciferase, % of control: 60.1; Call: inactive

How did the screen score RHO (rhodopsin) #2?
total luciferase, z-score: -0.493; total luciferase, % of control: 72.1; Call: inactive

What did the screen give for RHO (rhodopsin) #3?
total luciferase, z-score: -0.437; total luciferase, % of control: 73.2; Call: inactive

With LOC728114 (retired record) #1, what does the deposit list?
total luciferase, z-score: 0.274; total luciferase, % of control: 87.3; Call: inactive

For LOC728114 (retired record) #2, what was measured?
total luciferase, z-score: -0.566; total luciferase, % of control: 70.6; Call: inactive

For LOC728114 (retired record) #3, what does the deposit list?
total luciferase, z-score: 0.127; total luciferase, % of control: 84.4; Call: inactive
